From PMC10143440 come the findings set out here.

Sequences of proteins named here, by UniProt entry; tags and fusion partners are left off. Residues count along the entry.
UniProt Q69ZK9, residues 15-836: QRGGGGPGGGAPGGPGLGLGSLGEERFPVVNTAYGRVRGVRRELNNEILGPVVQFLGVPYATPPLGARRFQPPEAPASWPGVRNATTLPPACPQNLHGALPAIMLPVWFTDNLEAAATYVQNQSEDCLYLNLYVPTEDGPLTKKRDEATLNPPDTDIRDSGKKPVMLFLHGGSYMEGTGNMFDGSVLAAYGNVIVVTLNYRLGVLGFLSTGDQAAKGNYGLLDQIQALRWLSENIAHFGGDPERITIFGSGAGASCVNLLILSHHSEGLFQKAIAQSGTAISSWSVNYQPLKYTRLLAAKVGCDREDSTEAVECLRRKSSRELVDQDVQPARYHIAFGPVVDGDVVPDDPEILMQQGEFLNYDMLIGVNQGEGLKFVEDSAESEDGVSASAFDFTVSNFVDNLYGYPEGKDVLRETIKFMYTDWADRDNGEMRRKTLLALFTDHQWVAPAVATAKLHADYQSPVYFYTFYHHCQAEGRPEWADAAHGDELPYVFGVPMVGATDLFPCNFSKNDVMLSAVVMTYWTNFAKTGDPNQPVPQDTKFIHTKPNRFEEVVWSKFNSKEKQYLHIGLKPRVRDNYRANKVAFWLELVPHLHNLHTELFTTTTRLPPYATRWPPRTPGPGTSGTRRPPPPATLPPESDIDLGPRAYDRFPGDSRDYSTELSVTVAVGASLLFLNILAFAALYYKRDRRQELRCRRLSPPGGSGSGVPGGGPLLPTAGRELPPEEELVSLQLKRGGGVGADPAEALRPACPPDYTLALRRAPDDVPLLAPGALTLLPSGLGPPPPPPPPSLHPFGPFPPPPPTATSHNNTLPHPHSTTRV

Test [1] addresses T1, GABAA receptor γ2 subunit (Gabrg2) (mouse (endogenous in cerebellum)) (UniProt P22723).
T1 sequence: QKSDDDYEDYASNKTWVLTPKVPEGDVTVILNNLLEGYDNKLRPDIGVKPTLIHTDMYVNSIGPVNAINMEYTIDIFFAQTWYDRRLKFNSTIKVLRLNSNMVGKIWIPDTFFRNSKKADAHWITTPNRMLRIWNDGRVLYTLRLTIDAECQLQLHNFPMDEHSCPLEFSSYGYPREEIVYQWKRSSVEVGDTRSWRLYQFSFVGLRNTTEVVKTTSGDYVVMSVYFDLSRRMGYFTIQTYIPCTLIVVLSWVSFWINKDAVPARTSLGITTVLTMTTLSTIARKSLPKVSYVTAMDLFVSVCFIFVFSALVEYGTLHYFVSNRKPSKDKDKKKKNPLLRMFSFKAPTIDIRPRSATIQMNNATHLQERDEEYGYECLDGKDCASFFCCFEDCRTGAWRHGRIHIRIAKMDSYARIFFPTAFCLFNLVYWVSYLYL
The test can be described thus: native gel or EMSA; antibody-shift BN-PAGE with mass spectrometry: 10 μg mouse cerebellum homogenate (1% MNG) incubated 1 h with or without 4 μg anti-γ2 antibody (N452/69), NativePAGE 4-16% Bis-Tris at 4 °C, gel slices analysed by diaPASEF LC-MS.

Test [2] has as its target GABAA receptor α6 subunit (Gabra6) (mouse (endogenous in cerebellum)) (UniProt P16305). Kind of test: native gel or EMSA; antibody-shift BN-PAGE with mass spectrometry: 10 μg mouse cerebellum homogenate (1% MNG) incubated 1 h with or without 4 μg anti-α6 antibody (Gabra6-a), NativePAGE 4-16% Bis-Tris at 4 °C, gel slices analysed by LC-MS (DIA).
The target is the same in test [3]. The description is as above. The source holds these as a separate data set.
Test [4] addresses T2, GABAA receptor α6 subunit (Gabra6) (mouse (endogenous in cerebellum)), P16305.
T2 chain: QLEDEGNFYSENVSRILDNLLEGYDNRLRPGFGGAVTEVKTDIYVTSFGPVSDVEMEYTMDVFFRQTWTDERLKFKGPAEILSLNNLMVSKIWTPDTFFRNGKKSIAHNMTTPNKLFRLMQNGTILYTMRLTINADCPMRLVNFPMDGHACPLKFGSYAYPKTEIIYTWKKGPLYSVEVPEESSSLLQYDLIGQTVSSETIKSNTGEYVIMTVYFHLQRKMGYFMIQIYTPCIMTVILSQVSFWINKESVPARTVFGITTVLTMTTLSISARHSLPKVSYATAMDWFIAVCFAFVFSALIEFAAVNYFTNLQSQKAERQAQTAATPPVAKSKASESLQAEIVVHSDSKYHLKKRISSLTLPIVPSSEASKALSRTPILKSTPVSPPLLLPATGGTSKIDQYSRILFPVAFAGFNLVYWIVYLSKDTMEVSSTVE
The test can be described thus: native gel or EMSA; antibody-shift BN-PAGE with immunoblot: cerebellum lysate with or without anti-Gabra6 antibody, transferred to PVDF and immunostained for Gabra1. The note with it: remark: other sources report otherwise. On the technique in general: Mobility shift assays separate free from complexed probe on a gel.

The target in test [5] is T2, GABAA receptor α6 subunit (Gabra6) …. The test can be described thus: native gel or EMSA; antibody-shift BN-PAGE with mass spectrometry: 10 μg mouse cerebellum homogenate (1% MNG) incubated 1 h with or without 4 μg anti-α6 antibody (Gabra6-a), NativePAGE 4-16% Bis-Tris at 4 °C, gel slices analysed by LC-MS (DIA). The following applies: remark: other sources report otherwise.

Read-outs that look alike come from different tables or passages of the source. These are yes or no findings as the source states them, for the method shown. Some results given as binding are weak or reduced against the parent protein; the word gives no strength.

Take “GABAA receptor α6 subunit (Gabra6) (from UniProt P16305 20-453)”: the binding entry in test [1] was “binds”.

For “Neuroligin-2 (Nlgn2) (from UniProt Q69ZK9 15-836)”, the binding result in test [2] and in test [1] was “binds” each time.

B1: Gephyrin (Gphn) (protein, UniProt Q8BUV3 1-769)
chain: MATEGMILTNHDHQIRVGVLTVSDSCFRNLAEDRSGINLKDLVQDPSLLGGTISAYKIVPDEIEEIKETLIDWCDEKELNLILTTGGTGFAPRDVTPEATKEVIEREAPGMALAMLMGSLNVTPLGMLSRPVCGIRGKTLIINLPGSKKGSQECFQFILPALPHAIDLLRDAIVKVKEVHDELEDLPSPPPPLSPPPTTSPHKQTEDKGVQCEEEEEEKKDSGVASTEDSSSSHITAAALAAKIPDSIISRGVQVLPRDTASLSTTPSESPRAQATSRLSTASCPTPKQIRRPDESKGVASRVGSLKARLPSCSSTYSVSEVQSRCSSKENILRASHSAVDITKVARRHRMSPFPLTSMDKAFITVLEMTPVLGTEIINYRDGMGRVLAQDVYAKDNLPPFPASVKDGYAVRAADGPGDRFIIGESQAGEQPTQTVMPGQVMRVTTGAPIPCGADAVVQVEDTELIRESDDGTEELEVRILVQARPGQDIRPIGHDIKRGECVLAKGTHMGPSEIGLLATVGVTEVEVNKFPVVAVMSTGNELLNPEDDLLPGKIRDSNRSTLLATIQEHGYPTINLGIVGDNPDDLLNALNEGISRADVIITSGGVSMGEKDYLKQVLDIDLHAQIHFGRVFMKPGLPTTFATLDIDGVRKIIFALPGNPVSAVVTCNLFVVPALRKMQGILDPRPTIIKARLSCDVKLDPRPEYHRCILTWHHQEPLPWAQSTGNQMSSRLMSMRSANGLLMLPPKTEQYVELHKGEVVDVMVIGRL
Regarding B1, the binding result in test [3] is given as “no binding”.

B2: GABAA receptor α1 subunit (Gabra1), P62812 28-455 (protein)
chain: QPSQDELKDNTTVFTRILDRLLDGYDNRLRPGLGERVTEVKTDIFVTSFGPVSDHDMEYTIDVFFRQSWKDERLKFKGPMTVLRLNNLMASKIWTPDTFFHNGKKSVAHNMTMPNKLLRITEDGTLLYTMRLTVRAECPMHLEDFPMDAHACPLKFGSYAYTRAEVVYEWTREPARSVVVAEDGSRLNQYDLLGQTVDSGIVQSSTGEYVVMTTHFHLKRKIGYFVIQTYLPCIMTVILSQVSFWLNRESVPARTVFGVTTVLTMTTLSISARNSLPKVAYATAMDWFIAVCYAFVFSALIEFATVNYFTKRGYAWDGKSVVPEKPKKVKDPLIKKNNTYAPTATSYTPNLARGDPGLATIAKSATIEPKEVKPETKPPEPKKTFNSVSKIDRLSRIAFPLLFGIFNLVYWATYLNREPQLKAPTPHQ
Turning to B2, the binding result in test [4] and in test [5] was “binds” each time.
